According to the supplement of paper PMC10727501:
Some of the results follow. This data set is noisy: repeats of one test often differ as much as different tests do.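 Researchers measured free-swimming zebrafish larvae's O-bend response probability to dark flashes (naive: first five; training: remaining flashes of four 60-flash blocks; test: later 60-flash block) and OMR turning toward alternating leftward/rightward LED motion. Six treated larvae were compared to sixty 0.1% DMSO controls, with |SSMD|≥2 marking a hit.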

Legend:
Conditions in all cases: 10 µM; pre-incubation: 30-90 min
[1] = tested on: Danio rerio larvae (5 dpf, TLF); test: OMR-Perf (SSMD vs DMSO vehicle); higher = higher than vehicle (e.g. higher dark-flash O-bend response probability, or better optomotor performance)
[2] = tested on: Danio rerio larvae (5 dpf, TLF); test: Prob-Test (SSMD vs DMSO vehicle); higher = higher than vehicle (e.g. higher dark-flash O-bend response probability, or better optomotor performance)
[3] = tested on: Danio rerio larvae (5 dpf, TLF); test: Prob-Naive (SSMD vs DMSO vehicle); higher = higher than vehicle (e.g. higher dark-flash O-bend response probability, or better optomotor performance)
[4] = tested on: Danio rerio larvae (5 dpf, TLF); test: Prob-Train (SSMD vs DMSO vehicle); higher = higher than vehicle (e.g. higher dark-flash O-bend response probability, or better optomotor performance)

SMILES | OMR-Perf [1] | Prob-Test [2] | Prob-Naive [3] | Prob-Train [4]
COc1cc(Nc2ncc(F)c(Nc3ccc4c(n3)NC(=O)C(C)(C)O4)n2)cc(OC)c1OC.O=S(=O)(O)c1ccccc1 | -0.629 | -0.0922 | -0.109 | -0.421
Cc1nc(NC(=O)N2CCC[C@H]2C(N)=O)sc1-c1ccnc(C(C)(C)C(F)(F)F)c1 | 0.0687 | -0.248 | 0.0692 | -0.137
Cn1c(=O)c2c(ncn2CC2OCCO2)n(C)c1=O [Doxofylline] | -0.74 | -0.092 | -0.204 | 0.312
C=C1c2cccc(O)c2C(=O)C2=C(O)[C@]3(O)C(=O)C(C(N)=O)=C(O)[C@H](N(C)C)[C@@H]3[C@H](O)[C@H]12.Cl [Methacycline HCl] | -0.152 | -0.69 | 0.402 | 0.0904
CCOC(=O)[C@H](CCc1ccccc1)N[C@@H](C)C(=O)N1Cc2cc(OC)c(OC)cc2C[C@H]1C(=O)O.Cl [Moexipril HCl] | -0.0369 | -0.347 | -0.34 | -0.0365
Nc1ncnc2c1c(-c1cccc(OCc3ccccc3)c1)cn2[C@H]1C[C@H](CN2CCCC2)C1 | -0.289 | 0.454 | 0.255 | -0.219
Cl.NCCc1ccc(O)c(O)c1 [Dopamine HCl] | -0.63 | -0.351 | 0.028 | -0.447
Cc1cccc(Nc2cc(Cl)nc(SCC(=O)O)n2)c1C | 0.26 | 0.0161 | 0.0696 | 0.00616
CC(=O)Nc1ccc(C(=O)Nc2ccccc2N)cc1 [CI994 (Tacedinaline)] | -0.77 | 0.0421 | -0.736 | -0.184
NS(=O)(=O)c1cc2c(cc1Cl)NCNS2(=O)=O [Hydrochlorothiazide] | 0.0486 | 0.238 | 0.184 | -0.257
Cc1c(O)c(=O)ccn1C [Deferiprone] | 0.297 | -0.103 | 0.153 | 0.114
CN1C[C@@H]2C[C@H]1CN2c1cc2c(cc1F)c(=O)c(C(=O)O)cn2C1CC1.CS(=O)(=O)O [Danofloxacin Mesylate] | 0.0582 | -0.142 | -0.243 | 0.501
CN1Cc2c(N)cccc2C(c2ccccc2)C1.O=C(O)/C=C\C(=O)O (configuration not stated) [Nomifensine Maleate] | 0.601 | 0.606 | 0.298 | 0.579
Cc1cnc(NC(=O)Nc2cc(Br)c(C)cc2OC[C@@H]2CNCCO2)cn1 | -0.426 | -0.301 | -0.397 | -0.696
Cc1cccc(C)c1OCC(C)N.Cl (configuration not stated) [Mexiletine HCl] | -0.225 | -0.0272 | -0.314 | -0.128
Cl.Cl.Cl.Cl.Cl.NCCNCCNCCNCCN [Tetraethylenepentamine 5HCl] | 0.431 | 0.521 | -0.491 | 0.0703
OC(CC1c2ccccc2-c2cncn21)C1CCCCC1 (configuration not stated) | 0.0305 | -0.306 | -0.112 | -0.412
CC(C)NC[C@H](O)COc1ccc(CCOCC2CC2)cc1.Cl [Levobetaxolol HCl] | 0.43 | 0.154 | 0.0551 | 0.0867
CN1C(CCl)Nc2cc(Cl)c(S(N)(=O)=O)cc2S1(=O)=O (configuration not stated) [Methyclothiazide] | -0.556 | -0.0552 | 0.215 | 0.349
N#C[C@@H]1C[C@@H]2C[C@H]2N1C(=O)[C@@H](N)C12CC3CC(CC(O)(C3)C1)C2 [Saxagliptin] | -0.373 | 0.31 | 0.0343 | -0.0638
O=C(O)CCC(=O)O.O=C(O[C@H]1CN2CCC1CC2)N1CCc2ccccc2[C@@H]1c1ccccc1 [Solifenacin succinate] | -0.504 | -0.592 | 5.13e-16 | -0.739
CO[C@H]1C[C@H]2CC[C@@H](C)[C@@](O)(O2)C(=O)C(=O)N2CCCC[C@H]2C(=O)O[C@H]([C@H](C)C[C@@H]2CC[C@H](OP(C)(C)=O)[C@H](OC)C2)CC(=O)[C@H](C)/C=C(\C)[C@@H](O)[C@@H](OC)C(=O)[C@H](C)C[C@H](C)/C=C/C=C/C=C/1C [Ridaforolimus (Deforolimus, MK-8669)] | 0.876 | 0.33 | 0.00644 | 0.019
Cc1ccc(C(=O)c2ccc(CC(=O)O)n2C)cc1.O.O.[Na+] [Tolmetin Sodium] | -0.612 | -0.349 | 0.0912 | -0.0335

Part of the list above, reduced to Prob-Test [2] and Prob-Naive [3].
SMILES	Prob-Test [2]	Prob-Naive [3]
OC(CC1c2ccccc2-c2cncn21)C1CCCCC1 (configuration not stated)	-0.306	-0.112
CC(C)NC[C@H](O)COc1ccc(CCOCC2CC2)cc1.Cl [Levobetaxolol HCl]	0.154	0.0551
